Source: article PMC6588587
These are yes or no findings as the source states them, for the method shown.

Protein sequences, listed by entry. Tags and fused reporters are not part of them. Residues count along the entry.
UniProt P0CI27, residues 87-246: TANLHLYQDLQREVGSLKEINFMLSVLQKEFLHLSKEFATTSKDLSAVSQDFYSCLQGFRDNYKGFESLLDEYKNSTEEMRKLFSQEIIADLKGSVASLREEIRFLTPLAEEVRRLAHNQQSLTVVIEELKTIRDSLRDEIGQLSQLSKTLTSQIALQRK

Key:
[1] = target: IncA_(87–246)-His6x (C. trachomatis) (UniProt P0CI27); assay: crystal structure; hanging drop, 0.2 M sodium acetate trihydrate pH 8.0, 20% PEG 3350; space group P2_(1), one copy in the asymmetric unit; 1.12 Å; both purified
[2] = target: IncA_(87–246)-His6x (C. trachomatis) (UniProt P0CI27); assay: AUC; sedimentation velocity; IncA samples at 75 μM and 150 μM in 20 mM HEPES pH 7.5, 150 mM NaCl, 1 mM DTT, 45,000 rpm, 4 °C; c(s) distribution in SEDFIT; both purified

For “IncA_(87–246)-His6x (from UniProt P0CI27 87-246) (domain or fragment)”, the binding [1] was “no binding” and the binding [2] was “no binding (tested: 75 μM and 150 μM)”.
